Drawing on paper PMC5610320, this text covers binding for 2 molecules.

Experiment [1] addresses T1, MKK7 (endogenous, rat primary mesencephalic neurons) (rat (endogenous in primary mesencephalic neurons)) (UniProt Q4KSH7).
T1 sequence: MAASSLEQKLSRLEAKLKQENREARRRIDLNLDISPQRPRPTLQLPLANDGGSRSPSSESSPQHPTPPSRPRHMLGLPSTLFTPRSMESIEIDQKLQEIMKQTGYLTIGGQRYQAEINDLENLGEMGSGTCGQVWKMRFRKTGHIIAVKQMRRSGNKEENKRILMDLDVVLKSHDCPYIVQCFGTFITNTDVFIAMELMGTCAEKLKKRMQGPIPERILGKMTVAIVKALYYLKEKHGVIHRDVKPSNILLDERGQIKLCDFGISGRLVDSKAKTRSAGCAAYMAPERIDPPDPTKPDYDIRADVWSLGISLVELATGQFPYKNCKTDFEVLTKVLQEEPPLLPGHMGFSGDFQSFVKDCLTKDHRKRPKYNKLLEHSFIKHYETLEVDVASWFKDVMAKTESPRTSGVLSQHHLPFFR
Nature of the experiment: co-IP; endogenous proteins in lysates (buffer A) of primary rat mesencephalic neurons, untreated or treated with 200 μM MPP+ for 2 h, with control or CIB1 siRNA; immunoprecipitation with antibodies to ASK1 or to MKK7, immunoblot. On the technique in general: Immunoblotting shows a protein as a band on a membrane.

The target in experiment [2] is ASK1 (endogenous, rat primary mesencephalic neurons) (rat (endogenous in primary mesencephalic neurons)). Described as above.

Results are given in words; binding and its absence hold for the method and conditions named. In cells and extracts the contact can be indirect. Binding can be weak; no strength is given.

Consider “ASK1 (endogenous, rat primary mesencephalic neurons) (enzyme)”, for which the binding result in experiment [1] was “binds”.

B1: CIB1 (endogenous, rat primary mesencephalic neurons) (protein, UniProt Q9R010 1-191)
chain: MGGSGSRLSKELLAEYQDLTFLTKQEILLAHRRFCELLPPEHRTVEESLHTRVSFEQILSLPELKANPFKERICMVFSTSPTRDSLSFEDFLDLLSVFSDTATPDIKSHYAFRIFDFDDDGTLDREDLSRLVNCLTGEGEDTRLSASEMKQLIDNILEESDIDRDGTINLSEFQHVISRSPDFASSFKIVL
For B1, the binding result in experiment [2] is “binds”.
